For at least one compound, name, drawing or mass did not settle the structure. Some of these results come from one statement about several compounds together.
Experiments:
[1] = system: SARS-CoV-2; assay type: cell-based; settings: Calu-3, plaque assay, estimated
[2] = system: SARS-CoV-2 (strain: BEI_USA-WA1/2020); assay type: cell-based; settings: Calu-3, 4 h pretreatment, MOI 0.01, 48 h post-infection (FIG. 2, FIG. 3)

Question: Which EC90 [1] does the source give for `C[C@@H]1CS/C(=N\NC(=O)C(=O)[C@@H](NC(=O)C2CCCCCC2)C2CCOCC2)N1C` [ONO-5334] here?
Answer: 1 to 10 µM

Question: With `CC(C)(F)C[C@H](N[C@@H](c1ccc(-c2ccc(S(C)(=O)=O)cc2)cc1)C(F)(F)F)C(=O)NC1(C#N)CC1` [Odanacatib] as the compound, how does the “antiviral activity (percentage of virus infected cells vs concentration)” value [2] read?
Answer: no drug dose dependent antiviral activity observed

— patent publication US20230142126A1, “METHODS AND COMPOSITIONS FOR THE TREATMENT OF VIRAL DISEASES” (priority 2020, published 2023)
